PMC8836267
No constants are given. Whether binding was seen depends on the method and setting.

Amino acid sequences for entries named in this document (tags omitted). Residues count along the entry.
UniProt P40126, residues 24-474: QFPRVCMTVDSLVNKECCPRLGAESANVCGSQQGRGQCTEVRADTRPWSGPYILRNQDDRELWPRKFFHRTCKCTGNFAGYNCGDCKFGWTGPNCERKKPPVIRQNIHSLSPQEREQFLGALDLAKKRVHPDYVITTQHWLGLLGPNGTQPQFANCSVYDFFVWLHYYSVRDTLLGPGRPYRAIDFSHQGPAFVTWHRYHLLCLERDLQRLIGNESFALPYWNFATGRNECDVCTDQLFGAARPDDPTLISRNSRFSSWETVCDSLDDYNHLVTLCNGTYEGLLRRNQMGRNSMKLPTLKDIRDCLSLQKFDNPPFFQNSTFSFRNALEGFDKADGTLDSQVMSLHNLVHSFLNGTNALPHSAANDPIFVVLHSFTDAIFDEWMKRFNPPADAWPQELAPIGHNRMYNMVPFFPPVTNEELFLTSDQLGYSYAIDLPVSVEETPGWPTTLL

Legend:
[1] = molecular target: Intra-melanosomal domain of human recombinant tyrosinase-related protein 2 (Tyrp2_(43tr), residues 1-474) (human) (UniProt P40126); test: dynamic light scattering; Tyrp2 at 1 mg/mL in 50 mM Tris-HCl (pH 7.4), 1 mM EDTA, 150 mM NaCl, 50 µM TCEP, 25 °C; both purified
[2] = molecular target: Intra-melanosomal domain of human recombinant tyrosinase-related protein 2 (Tyrp2_(43tr), residues 1-474) (human) (UniProt P40126); test: SEC; Superdex 200 Increase 10/300 GL, calibrated with Bio-Rad gel-filtration standards; Tyrp2 after IMAC and gel filtration; both purified

Intra-melanosomal domain of human recombinant tyrosinase-related protein 2 (Tyrp2_(43tr), residues 1-474) (from UniProt P40126 24-474) (domain or fragment)
binding [1]: no binding (tested: 1 mg/mL)
binding [2]: no binding
